1 molecule from patent publication US20130224854A1 (NIPPON KAYAKU, published 2013) can be followed below.

These are yes or no findings as the source states them, for the method shown. Some results given as binding are weak or reduced against the parent protein; the word gives no strength.

This test deals with T1, peptide … (SEQ ID NO: 41) (human).
T1 sequence (peptide): GIGIPGLRG
Briefly: dot blot of synthetic peptides with NK46141 as a probe.

B1: monoclonal antibody NK46141 (antibody, V domains shown)
VH: EVQLVESGGGLVKPGGSLKLSCAASGFTFTDYYMYWVRQTPEKRLEWVATISEGGSYTYYPDSVKGRFTISRDNAKNNLYLQMSSLKSEDTAMYYCASPYYGDGGFAYWGQGTLVTVSA
VL: DVLMTQTPLSLPVSLGDQASISCRSSQSIVHSDGNTYLEWYLQKPGQSPRLLIYKVSNRFSGVPDRFSGSGSGTDFTLKISRVEAEDLGVYYCFQGSHVPPTFGGGTKLEIKR
notes: also called anti-single-chain type IV collagen polypeptide antibody; Anti NK-Antigen monoclonal antibody #141
On to B1, for which the binding entry was “binds”.
